Source: ChEMBL document CHEMBL3085714 (J Med Chem, 2013)
This continues a long series; more values of the same kind are listed elsewhere.

Tests used:
[1] = species: Homo sapiens; assay: Selectivity for p38alpha MAP kinase (unknown origin) over MEKK2 (unknown origin)
[2] = species: Homo sapiens; assay: Selectivity for p38alpha MAP kinase (unknown origin) over MARK4 (unknown origin)
[3] = species: Homo sapiens; assay: Selectivity for p38alpha MAP kinase (unknown origin) over PRKX (unknown origin)
[4] = species: Homo sapiens; assay: Selectivity for p38alpha MAP kinase (unknown origin) over CDK4/CycD1 (unknown origin)
[5] = species: Homo sapiens; assay: Selectivity for p38alpha MAP kinase (unknown origin) over ACV-R1 (unknown origin)
[6] = species: Homo sapiens; assay: Selectivity for p38alpha MAP kinase (unknown origin) over RPS6KA3 (unknown origin)
[7] = species: Homo sapiens; assay: Selectivity for p38alpha MAP kinase (unknown origin) over wild type PDGFR-alpha (unknown origin)
[8] = species: Homo sapiens; assay: Selectivity for p38alpha MAP kinase (unknown origin) over RIPK5 (unknown origin)
[9] = species: Homo sapiens; assay: Selectivity for p38alpha MAP kinase (unknown origin) over PDGFR-alpha T674I mutant (unknown origin)
[10] = species: Homo sapiens; assay: Selectivity for p38alpha MAP kinase (unknown origin) over MST1 (unknown origin)
[11] = species: Homo sapiens; assay: Selectivity for p38alpha MAP kinase (unknown origin) over MAP4K5 (unknown origin)
[12] = species: Homo sapiens; assay: Selectivity for p38alpha MAP kinase (unknown origin) over MAP3K11 (unknown origin)
[13] = species: Homo sapiens; assay: Selectivity for p38alpha MAP kinase (unknown origin) over ABL1 H396P mutant (unknown origin)
[14] = species: Homo sapiens; assay: Selectivity for p38alpha MAP kinase (unknown origin) over DYRK4 (unknown origin)
[15] = species: Homo sapiens; assay: Selectivity for p38alpha MAP kinase (unknown origin) over ALK (unknown origin)
[16] = species: Homo sapiens; assay: Selectivity for p38alpha MAP kinase (unknown origin) over MET Y1230C mutant (unknown origin)
[17] = species: Homo sapiens; assay: Selectivity for p38alpha MAP kinase (unknown origin) over ABL1 G250E mutant (unknown origin)
[18] = species: Homo sapiens; assay: Selectivity for p38alpha MAP kinase (unknown origin) over SRPK2 (unknown origin)
[19] = species: Homo sapiens; assay: Selectivity for p38alpha MAP kinase (unknown origin) over CLK2 (unknown origin)
[20] = species: Homo sapiens; assay: Selectivity for p38alpha MAP kinase (unknown origin) over PIM3 (unknown origin)
[21] = species: Homo sapiens; assay: Selectivity for p38alpha MAP kinase (unknown origin) over SGK2 (unknown origin)
[22] = species: Homo sapiens; assay: Selectivity for p38alpha MAP kinase (unknown origin) over HIPK3 (unknown origin)
[23] = species: Homo sapiens; assay: Selectivity for p38alpha MAP kinase (unknown origin) over TSK2 (unknown origin)
[24] = species: Homo sapiens; assay: Selectivity for p38alpha MAP kinase (unknown origin) over MYLK (unknown origin)
[25] = species: Homo sapiens; assay: Selectivity for p38alpha MAP kinase (unknown origin) over PBK (unknown origin)
[26] = species: Homo sapiens; assay: Selectivity for p38alpha MAP kinase (unknown origin) over PKA (unknown origin)
[27] = species: Homo sapiens; assay: Selectivity for p38alpha MAP kinase (unknown origin) over MEKK3 (unknown origin)
[28] = species: Homo sapiens; assay: Selectivity for p38alpha MAP kinase (unknown origin) over MET Y1235D mutant (unknown origin)
[29] = species: Homo sapiens; assay: Selectivity for p38alpha MAP kinase (unknown origin) over CAMK1D (unknown origin)
[30] = species: Homo sapiens; assay: Selectivity for p38alpha MAP kinase (unknown origin) over CDK2/CycA (unknown origin)
[31] = species: Homo sapiens; assay: Selectivity for p38alpha MAP kinase (unknown origin) over ITK (unknown origin)
[32] = species: Homo sapiens; assay: Selectivity for p38alpha MAP kinase (unknown origin) over TAOK2 (unknown origin)
[33] = species: Homo sapiens; assay: Selectivity for p38alpha MAP kinase (unknown origin) over HIPK1 (unknown origin)
[34] = species: Homo sapiens; assay: Selectivity for p38alpha MAP kinase (unknown origin) over GRK6 (unknown origin)
[35] = species: Homo sapiens; assay: Selectivity for p38alpha MAP kinase (unknown origin) over TAOK3 (unknown origin)
[36] = species: Homo sapiens; assay: Selectivity for p38alpha MAP kinase (unknown origin) over PLK3 (unknown origin)
[37] = species: Homo sapiens; assay: Selectivity for p38alpha MAP kinase (unknown origin) over JAK1 (unknown origin)
[38] = species: Homo sapiens; assay: Selectivity for p38alpha MAP kinase (unknown origin) over AKT1 (unknown origin)
[39] = species: Homo sapiens; assay: Selectivity for p38alpha MAP kinase (unknown origin) over HIPK2 (unknown origin)
[40] = species: Homo sapiens; assay: Selectivity for p38alpha MAP kinase (unknown origin) over ABL1 M351T mutant (unknown origin)
[41] = species: Homo sapiens; assay: Selectivity for p38alpha MAP kinase (unknown origin) over MST3 (unknown origin)
[42] = species: Homo sapiens; assay: Selectivity for p38alpha MAP kinase (unknown origin) over FYN (unknown origin)
[43] = species: Homo sapiens; assay: Selectivity for p38alpha MAP kinase (unknown origin) over EPHA2 (unknown origin)
[44] = species: Homo sapiens; assay: Selectivity for p38alpha MAP kinase (unknown origin) over WNK3 (unknown origin)
[45] = species: Homo sapiens; assay: Selectivity for p38alpha MAP kinase (unknown origin) over PKC-gamma (unknown origin)
[46] = species: Homo sapiens; assay: Selectivity for p38alpha MAP kinase (unknown origin) over EGFR 752 to 759 deletion mutant (unknown origin)
[47] = species: Homo sapiens; assay: Selectivity for p38alpha MAP kinase (unknown origin) over MAP3K10 (unknown origin)
[48] = species: Homo sapiens; assay: Selectivity for p38alpha MAP kinase (unknown origin) over FAK (unknown origin)
[49] = species: Homo sapiens; assay: Selectivity for p38alpha MAP kinase (unknown origin) over TGFB-R1 (unknown origin)
[50] = species: Homo sapiens; assay: Selectivity for p38alpha MAP kinase (unknown origin) over VRK1 (unknown origin)
[51] = species: Homo sapiens; assay: Selectivity for p38alpha MAP kinase (unknown origin) over AKT3 (unknown origin)
[52] = species: Homo sapiens; assay: Selectivity for p38alpha MAP kinase (unknown origin) over CAMKK1 (unknown origin)
[53] = species: Homo sapiens; assay: Selectivity for p38alpha MAP kinase (unknown origin) over MST4 (unknown origin)
[54] = species: Homo sapiens; assay: Selectivity for p38alpha MAP kinase (unknown origin) over TBK1 (unknown origin)
[55] = species: Homo sapiens; assay: Selectivity for p38alpha MAP kinase (unknown origin) over NEK1 (unknown origin)
[56] = species: Homo sapiens; assay: Selectivity for p38alpha MAP kinase (unknown origin) over WEE1 (unknown origin)
[57] = species: Homo sapiens; assay: Selectivity for p38alpha MAP kinase (unknown origin) over MET Y1230D mutant (unknown origin)
[58] = species: Homo sapiens; assay: Selectivity for p38alpha MAP kinase (unknown origin) over CLK4 (unknown origin)
[59] = species: Homo sapiens; assay: Selectivity for p38alpha MAP kinase (unknown origin) over NEK6 (unknown origin)
[60] = species: Homo sapiens; assay: Selectivity for p38alpha MAP kinase (unknown origin) over CAMKK2 (unknown origin)
[61] = species: Homo sapiens; assay: Selectivity for p38alpha MAP kinase (unknown origin) over PLK1 (unknown origin)
[62] = species: Homo sapiens; assay: Selectivity for p38alpha MAP kinase (unknown origin) over ERK2 (unknown origin)
[63] = species: Homo sapiens; assay: Selectivity for p38alpha MAP kinase (unknown origin) over LRRK2 I2020T mutant (unknown origin)
[64] = species: Homo sapiens; assay: Selectivity for p38alpha MAP kinase (unknown origin) over wild type LRRK2 (unknown origin)

Measured: Selectivity ratio

Cc1cc(F)c(NC(=O)c2ccsc2)cc1Nc1ccc2c(c1)OCc1ccc(OC[C@H](O)CO)cc1C2=O
> 1000: all assays above
